Experimental data published in PubChem BioAssay AID504444 (National Center for Advancing Translational Sciences (NCATS), 2011).
In all, about 360,000 compounds went through this assay and about 7,500 (2.1%) were called active. The shares of active, inactive and inconclusive entries below differ from those in the screen. The call rests on the fitted dose curve; in most records, active means well fitted inhibition curve with a large enough effect; inconclusive means small, poorly fitted or top-dose-only effect, or effect the other way; inactive means flat fitted curve, though single readings scatter. Potencies of inconclusive entries are doubtful fits and often do not repeat.

Test: Nrf2 qHTS screen for inhibitors; further: nearly all actives have a fitted effect of over 60% in size
Conditions: A549 ARE-Fluc reporter, luciferase luminescence, 18-24 h; activity change, negative = inhibition: at 46 µM (top of the series)
Outline: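 Nrf2 activity is the BugLite luminescence, read 15 min after reagent at room temperature, following CellTiter-Fluor cytotoxicity readout (30 min, 37C). Compound titrations were applied for 18-24 h to 5000 A549 ARE_Fluc cells/well in 5% FBS OPTI-MEM.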
On the % scale 0 is the no-effect control and ±100 the full control effect; potency means the concentration at half of the fitted maximal effect.

| Structure (SMILES) | Potency | activity change, negative = inhibition |
| --- | --- | --- |
| CCCC(C)C(=O)Nc1nc(C)c(-c2csc(Nc3ccc(Cl)cc3)n2)s1 (stereo not drawn) | active: 14.6 µM |  |
| O=[N+]([O-])c1cc(Cl)cc(/C=N\Nc2ccccn2)c1O | inconclusive: 7.31 µM [falling, partial curve] |  |
| O=C(O)c1ccccc1C(=O)Nc1ccccc1 |  | inactive: -2.19% |
| COc1ccccc1NC(=O)C(C)N(C)CCOc1ccccc1 (stereo not drawn) | inconclusive: 20.6 µM [falling, single point] |  |
| CCc1ccccc1NC(=O)Cn1nnc(C(=O)NCc2cccs2)c1N | inconclusive: 23.1 µM [activator, single point] |  |
| Cc1ccsc1/C=C1/SC(N2CC(C)OC(C)C2)=NC1=O (stereo not drawn) | inconclusive: 7.31 µM [falling, partial curve, poor fit] |  |
| Cc1ccccc1-n1ncc2c(SCC(=O)N3c4ccccc4CC3C)ncnc21 (stereo not drawn) | inconclusive: 29.1 µM [falling, single point] |  |
| Cc1cc(C(=O)CSc2nc3ccc(Cl)cc3[nH]2)c(C)n1Cc1ccco1 | inconclusive: 29.1 µM [falling, single point] |  |
| Cc1ccc(-c2n[nH]c(=O)c3ccccc23)cc1S(=O)(=O)NCC1CCCO1 (stereo not drawn) | inconclusive: 23.1 µM [falling, single point] |  |
| COC(=O)c1cccc(C23CC4(C2)[C@H](CN(Cc2cccnc2)[C@@H]4c2ccccc2)C3c2ccc(Cl)nc2)c1 (stereo partly drawn) | inconclusive: 20.6 µM [falling, single point] |  |
| CCOC(=O)C1CCN(C(=O)c2nn(-c3ccc(OC)cc3)c(=O)c3c2c2ccccc2n3C)CC1 | inconclusive: 0.0731 µM [activator, full curve, poor fit] |  |
| COc1cc(/C=N/Nc2ccnc(=O)[nH]2)ccc1O | inconclusive: 29.1 µM [activator, single point] |  |
| CC1=CC2=NC(=O)C(c3ccccc3)C(=O)N2C=C1 (stereo not drawn) |  | inactive: 16.5% |
| Cc1cc(Br)cc(/C=N/NC(=O)c2ccc3c(c2)OCO3)c1O | inconclusive: 20.6 µM [falling, single point] |  |
| O=[N+]([O-])c1cc([N+](=O)[O-])c(Oc2ccc(Cl)c3cccnc23)cc1NN1CCCCC1 | inconclusive: 20.6 µM [falling, single point] |  |
| Cc1ccc(-c2noc(-c3nnn(CC(=O)Nc4cc(Cl)ccc4C)c3N)n2)cc1 | inconclusive: 0.92 µM [activator, partial curve] |  |
| Cc1ccn2cc(-c3cccc(NC(=O)c4cccs4)c3)nc2c1 | inconclusive: 16.4 µM [activator, partial curve] |  |
| CC(C)c1ccc(CN(C(=O)C2COc3ccccc3O2)C2CCS(=O)(=O)C2)cc1 (stereo not drawn) |  | inactive: -4.15% |
| Cc1ccc(CSc2nc3cccnc3n2Cc2ccc(C(=O)NCCc3cccs3)cc2)cc1 | inconclusive: 9.2 µM [falling, single point] |  |
| Cc1nn(C)c2c1c(C(F)(F)F)cc(=O)n2CC(=O)N1CCC(C)CC1 |  | inactive: 20.6% |
| O=c1[nH]c2ccc(S(=O)(=O)N3CCN(S(=O)(=O)c4ccc5c(c4)OCCO5)CC3)cc2[nH]c1=O |  | inactive: 12% |

| Structure (SMILES) | Potency | activity change, negative = inhibition |
| --- | --- | --- |
| COc1ccc(-c2c(C)nn3c(N4CCOCC4)cc(C)nc23)cc1OC | inconclusive: 29.1 µM [falling, partial curve, poor fit] |  |
| C=CCSc1nnc(NC(=O)c2nc(SCC)ncc2Cl)s1 | inconclusive: 6.51 µM [falling, single point] |  |
| Cc1cc(C(=O)Nc2sccc2C(N)=O)c(C)o1 | inconclusive: 20.6 µM [activator, single point] |  |
| Cc1cc(C(=O)NC2CCCc3c2cnn3-c2ccc(C(C)(C)C)cc2)nn1C (stereo not drawn) | active: 2.59 µM |  |
| CCOc1ccc(-n2c(SCC(=O)NCc3ccco3)nnc2-c2c[nH]c3ccccc23)cc1 | inconclusive: 9.2 µM [falling, partial curve, poor fit] |  |
| O=C(c1ccccc1C(=O)N1CCN(c2ccc(F)cc2)CC1)N1CCN(c2ccc(F)cc2)CC1 | inconclusive: 14.6 µM [falling, single point] |  |
| COc1ccc(/C=N/Nc2nc(N3CCCC3)nc(N3CCCC3)n2)cc1 | inconclusive: 6.51 µM [falling, full curve, poor fit] |  |
| C=CCNC(=O)Cc1c(OC)ccc2cc(Br)ccc12 | inconclusive: 23.1 µM [falling, single point] |  |
| CCOc1ccc(C(=O)C(CN2CCOCC2)c2ccccc2)cc1 (stereo not drawn) | inconclusive: 8.2 µM [activator, partial curve, poor fit] |  |
| C=C(C)COc1ccc(-c2nc(N)ncc2-c2ccccc2OC)c(O)c1 | inconclusive: 3.66 µM [activator, single point] |  |
| O=C(OCC(=O)N1CCCc2ccccc21)c1cccc(S(=O)(=O)N2CCOCC2)c1 | inconclusive: 2.91 µM [activator, partial curve, poor fit] |  |
| Cc1ccc(F)c(NC(=O)CCc2ccccc2)c1 | inconclusive: 29.1 µM [activator, single point] |  |
| CC(NC(=O)N(Cc1ccccc1)Cc1ccc2c(c1)OCO2)(C(F)(F)F)C(F)(F)F | inconclusive: 11.6 µM [falling, partial curve, poor fit] |  |
| Cc1cc(C)nc(CCNC(=O)c2cc(COc3ccc(F)cc3F)on2)n1 | inconclusive: 8.2 µM [activator, partial curve, poor fit] |  |
| Cc1ccc(C)c(OCc2ccc(C(=O)N3N=C(C(F)F)CC3(O)C(F)F)o2)c1 (stereo not drawn) | inconclusive: 29.1 µM [falling, single point] |  |
| COc1ccc(-c2ccc3c(c2)C2CC3CCN2S(=O)(=O)c2ccccc2C)cc1 (stereo not drawn) | inconclusive: 20.6 µM [falling, single point] |  |
| COc1cc(OC)cc(C(=O)NNC(=O)c2cc(S(=O)(=O)N3CCOCC3)ccc2F)c1 | inconclusive: 9.2 µM [falling, partial curve, poor fit] |  |
| O=C(NCC1CCN(c2ccc(S(=O)(=O)N3CCOCC3)cc2)CC1)Nc1ccccc1 | active: 14.6 µM |  |
| O=C1c2ccc(Cl)cc2S(=O)(=O)c2cccc(C(=O)N3CCN(c4ccc(Cl)cn4)CC3)c21 | inconclusive: 29.1 µM [falling, single point] |  |
| CC(=O)c1cccc(NC(=O)c2nc(-c3ccccc3)n(-c3ccccc3C)n2)c1 |  | inactive: -16% |
| CC(C)CC(=O)Nc1ccc(C(=O)Cn2nc(C(=O)O)c3ccccc3c2=O)cc1 |  | inactive: -13% |

| Structure (SMILES) | Potency | activity change, negative = inhibition |
| --- | --- | --- |
| COc1ccc(CN2CCN(C(=O)c3cc(-c4cccnc4)nc4ccc(Cl)cc34)CC2)c(OC)c1OC |  | inactive: -26.3% |
| CCC(C)NC(=O)COC(=O)c1cc([N+](=O)[O-])ccc1Sc1nc(C)cs1 (stereo not drawn) | inconclusive: 0.461 µM [falling, partial curve, poor fit] |  |
| COc1cccc(NC(=O)CN(C)CC(=O)c2c(C)[nH]c3ccccc23)c1 |  | inactive: -10.7% |
| COc1ccc(Cl)cc1Nc1nc(C)nc2c1oc1ccccc12 | inconclusive: 29.1 µM [falling, single point] |  |
| CCc1cccc(CC)c1NC(=O)COC(=O)CC1c2ccccc2CCN1S(=O)(=O)c1ccccc1 (stereo not drawn) | inconclusive: 16.4 µM [falling, partial curve] |  |
| CC(C)(C)NC(=O)CSc1nncn1NCc1cccc2ccccc12 |  | inactive: -10.6% |
| COc1ccc(OCc2cc(C(=O)N3CCCC(CO)C3)no2)c2ccccc12 (stereo not drawn) | inconclusive: 3.66 µM [activator, full curve] |  |
| O=C(NC(=S)N1CCN(c2ccc([N+](=O)[O-])cc2)CC1)c1ccc(F)cc1 | inconclusive: 32.6 µM [falling, single point] |  |
| Cn1c(=O)n(Cc2ccccc2)c(=O)c2c1nc1n2CCN1Cc1ccco1 | inconclusive: 7.31 µM [falling, single point] |  |
| COc1cccc(C(=O)Nc2cc(C(=O)NCc3ccc(C)cc3)ccc2N2CCC3(CC2)CC(c2ccccc2)=NO3)c1 |  | inactive: -7.49% |
| COc1ccc(NS(=O)(=O)c2cccc(C(=O)NCC3(N4CCCCC4)CCCCC3)c2)cc1 | inconclusive: 6.51 µM [activator, partial curve, poor fit] |  |
| CN(C)c1cc(Nc2ccc(O)cc2)c([N+](=O)[O-])c2nonc12 |  | inactive: -14.8% |
| COc1ccc(N2CCN(C(=O)CCS(=O)(=O)c3ccc4c(c3)CCN4C(=O)C3CC3)CC2)cc1 | inconclusive: 29.1 µM [falling, single point] |  |
| c1ccc(-c2cc3c(N4CCN(c5ccccc5)CC4)ncnc3s2)cc1 | inconclusive: 18.4 µM [falling, single point] |  |
| Cc1nnc(N2CCCC(C(=O)NCCc3ccccc3)C2)c2nn(-c3ccccc3)c(C)c12 (stereo not drawn) |  | inactive: -15.2% |
| Cc1ccn2cc(-c3ccc(C)c(NS(=O)(=O)c4ccc(Cl)cc4)c3)nc2c1 | inconclusive: 29.1 µM [falling, single point] |  |
| O=C(c1cccc(COc2cccc3ccccc23)c1)N1CCCC1 | inconclusive: 29.1 µM [falling, single point] |  |
| COCCN(C)C(=O)CC1C(=O)NCCN1CC(c1ccccc1)c1ccccc1 (stereo not drawn) | inconclusive: 29.1 µM [falling, single point] |  |
| Cc1cc(C)c(NC(=O)Cn2c(=O)n(Cc3ccc(C(=O)NCc4ccco4)cc3)c(=O)c3sccc32)c(C)c1 | inconclusive: 0.58 µM [falling, full curve, poor fit] |  |
| COc1ccc(CCN2CC(C(=O)N(C)Cc3ccc(C)o3)CCC2=O)cc1 (stereo not drawn) | inconclusive: 5.17 µM [activator, partial curve, poor fit] |  |
| COc1ccc(Cl)cc1NC(=O)c1cccc(N2C(=O)C3CC=CCC3C2=O)c1 (stereo not drawn) | inconclusive: 20.6 µM [falling, partial curve] |  |

By substructure, the compounds so far with a COOH group

| Structure (SMILES) | Potency | activity change, negative = inhibition |
| --- | --- | --- |
| O=C(O)c1ccccc1C(=O)Nc1ccccc1 |  | inactive: -2.19% |
| CC(C)CC(=O)Nc1ccc(C(=O)Cn2nc(C(=O)O)c3ccccc3c2=O)cc1 |  | inactive: -13% |

A draw from above in order of formula weight, descending.

| Structure (SMILES) | Potency | activity change, negative = inhibition |
| --- | --- | --- |
| O=C(NC(=S)N1CCN(c2ccc([N+](=O)[O-])cc2)CC1)c1ccc(F)cc1 | inconclusive: 32.6 µM [falling, single point] |  |
| Cn1c(=O)n(Cc2ccccc2)c(=O)c2c1nc1n2CCN1Cc1ccco1 | inconclusive: 7.31 µM [falling, single point] |  |
| CC(C)(C)NC(=O)CSc1nncn1NCc1cccc2ccccc12 |  | inactive: -10.6% |
